# Assay results from patent US9333194B2, “Use of ansamycin antibiotics and method of screening novel angiogenesis inhibitor” (Japan Science & Technology Agency, priority 2002, dated 2016).
# At least one compound was matched to its structure with a doubt left.
# Columns and labels:
# hepatoma = assay: Use in patients with hepatoma associated with hepatitis C-related liver cirrhosis; type: in vivo, human; settings: despite repeated previous episodes of recurrence
# [1] = system: solid tumors derived from human colon cancer cell line (CW-2); assay: Antitumor effect in explanted tumors in nude mice; type: in vivo; settings: oral intake starting when solid tumors reached 200 mm^3, versus group which did not receive rifampicin; FIG. 4
# [2] = system: human retinal microvascular endothelial cells; assay: Angiogenesis-inhibiting signals (mRNA quantification by real-time quantitative PCR); type: cell-based; settings: various concentrations
# Experimental: Human retinal microvascular endothelial cells were rendered to grow exponentially in the presence of serum/growth factors/angiogenesis-promoting factors, and various concentrations of rifampicin, rifamycin SV and 3-formyl rifamycin were added. After four hours-incubation, RNA was extracted and subjected to mRNA quantification of various genes using aforementioned LightCycler-based highly sensitive real-time quantitative PCR. A, B and C represent the quantification results of c-myc gene; D, E and F represent those of integrin-αv gene; G, H and I represent those of integrin-β3 gene. Further, A, D and G indicate the changes of mRNA levels after adding rifampicin; B, E and H indicate those after adding rifamycin SV; C, F and I indicate those after adding 3-formyl rifamycin.
# [3] = system: adult human dermal microvascular endothelial cells; assay: Modified 72-hour-proliferation assay; type: cell-based; settings: various concentrations for 48-72 hours, growth medium containing 10% fetal bovine serum; FIG. 2
# [4] = system: adult human dermal microvascular endothelial cells; assay: Cell migration by monolayer wounding method; type: cell-based; settings: 40 μg/ml pretreatment for 24 hours, 10% fetal bovine serum; FIG. 3
# [5] = system: adult human dermal microvascular endothelial cells; assay: Angiogenesis-inhibiting signals (mRNA quantification by real-time quantitative PCR); type: cell-based; settings: various concentrations, four hours incubation, in the presence of serum/growth factors/angiogenesis-promoting factors; FIG. 1
compound,measurement,setting,value
"CO[C@H]1/C=C/O[C@@]2(C)Oc3c(C)c(O)c4c(O)c(c(/C=N/N5CCN(C)CC5)c(O)c4c3C2=O)NC(=O)/C(C)=C\C=C\[C@H](C)[C@H](O)[C@@H](C)[C@@H](O)[C@@H](C)[C@H](OC(C)=O)[C@@H]1C [rifampicin, 3-{[(4-methyl-1-piperazinyl)imino]methyl}rifamycin]",hepatoma recurrence,hepatoma,hepatoma never recurred during the long term
same,tumor growth (tumor volume),[1],significantly inhibited tumor growth
same,angiogenesis-inhibiting signals (changes of gene expression levels),"[2]; four hours incubation, FIG. 6",markedly elicited
same,"mRNA amount of c-myc, integrin-αv, integrin-β3",[2]; FIG. 6 legend,inhibited in a concentration-dependent manner
same,proliferation of endothelial cells (cell number),[3],inhibited the proliferation of adult human dermal microvascular endothelial cells in a concentration-dependent manner
same,advanced distances of wounding edge (cell migration),[4],markedly decreased
same,"angiogenesis-inhibiting signals (mRNA of FAK, PECAM-1, integrin-αv, integrin-β3, endothelin-1, ETB, c-myc, Flt genes)",[5],induced angiogenesis-inhibiting signals showing spectra similar to those of endostatin
